The whole screen tested about 340,000 compounds, of which about 170 (0.05%) were called active. Inconclusive means that the source gave no clear call. Such entries were picked first, then a sample of the others. The call rests on the fitted dose curve; in most records, active means well fitted inhibition curve with a large enough effect in the signal ratio, with a control signal flat (not every such curve was filed as active); inconclusive means small, poorly fitted or top-dose-only effect, or effect the other way, or a change in a side signal; inactive means flat fitted curve, though single readings scatter; the % refers to the signal ratio. Potencies beside an inconclusive call are fits to weak or partial responses and may not hold up.
Assay: qHTS Assay to Find Inhibitors of Chronic Active B-Cell Receptor Signaling;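 on activity change, negative = inhibition: plate controls were basal doxycycline-induced cells for no effect and cells given 10 µM MG132 for full effect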
Settings: ABC-DLBCL IkBa-CBG/CBR reporter, luminescence ratio (green luciferase fused to IkBa over red control in TMD8 lymphoma cells), 4 h; activity change, negative = inhibition: at 46.1 µM (top of the series)
Procedure, shortened: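 Concentration-response series (up to 46 uM) were applied to TMD8 dual-reporter cells for 4 h at 37C with doxycycline. Green/red ratio, after filter-overlap correction, defined %Activity; red signal alone was normalised to basal cells and zero luminescence.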
Potency means the concentration at half of the fitted maximal effect.

Compound | activity change, negative = inhibition | Potency
CC(=C1C(=O)c2ccccc2C1=O)N1CCC(C(N)=O)(N2CCCCC2)CC1 | inconclusive: 14.5% | 
CC(C)c1ccc(NC(=O)CSc2nc(=O)n(Cc3ccccn3)c3c2CCC3)cc1 | inactive: -0.216% | 
COc1ccc2c(c1OC)C(=O)OC2Nc1nc(-c2ccccc2)cs1 (stereo not given) | inconclusive: 3.43% | 
COc1ccc(C2CC(C(C)(C)C)=NN2c2ccc(S(N)(=O)=O)cc2)cc1 (stereo not given) | inconclusive: -2.28% | 
CCC(C(=O)NC1CCCC1)N(Cc1cccs1)C(=O)Cn1nnc(-c2ccc(OC)c(OC)c2)n1 (stereo not given) | inactive: -4.91% | 
CCCN(Cc1nnc(-c2ccccc2Cl)o1)C(=O)c1cc2ccccc2o1 | inactive: -7.43% | 
Cc1ccc(NC(=O)Cn2cc(C=O)c3ccccc32)cc1 | inactive: -8.68% | 
Nc1nc2sc3c(c2cc1C(=O)NCC(=O)O)CCCC3 | inactive: -10.5% | 
Cn1c(N)c(C(=O)CSc2ccc3c(c2)OCCO3)c(=O)n(C)c1=O |  | inconclusive: 12.6 µM [falling, single point]
O=C1OC(c2ccc(Br)cc2)=N/C1=C\c1ccco1 |  | inconclusive: 35.5 µM [rising, partial curve]
Cc1c2c(n3c(nc4ccccc43)c1C#N)N(c1ccccc1)CC2 | inconclusive: -7.85% | 
Brc1ccccc1Cn1c(-c2cncs2)nc2ccccc21 | inactive: 22.9% | 
CCCCn1c(=O)[nH]c(=O)c2c1nc(-c1ccc([N+](=O)[O-])cc1)n2CC | inconclusive: -13.1% | 
CCN(CC(=O)Nc1c(F)cccc1F)C(=O)c1ccc(S(=O)(=O)N2CCCCCC2)cc1 | inconclusive: 4.67% | 
C/C(CC(=O)Nc1cccc(C(F)(F)F)c1)=N\NC(=O)c1cnccn1 |  | inconclusive: 28.2 µM [falling, single point]
O=C1CCCCC1C(=O)c1cn(-c2ccc(Cl)c(Cl)c2)nn1 (stereo not given) | inconclusive: -5.18% | 
COc1ccc(C(=O)c2c(C)c3ccccc3n2CC(O)CNC(C)C)cc1 (stereo not given) | inconclusive: -17.7% | 
O=c1[nH]c(=O)n(-c2ccccc2)c2c1C(C(F)(F)F)(C(F)(F)F)N=C(C1CCCCC1)N2 | inconclusive: -1.21% | 
Clc1ccc(Cn2c(-c3cccnc3Cl)nc3ccccc32)c(Cl)c1 | inconclusive: -23.5% | 
COc1ccc(C(=O)Nc2nc3n(n2)C(c2ccccc2)C=C(c2ccccc2)N3)cc1 (stereo not given) | inactive: 0.342% | 
Cc1nc(N2CCCCC2)c2c(C)c(C(=O)Nc3cccc(C(F)(F)F)c3)sc2n1 | inconclusive: 2.84% | 
CCc1ccc(OCCNc2cc(N3CCNC(C)C3)ccc2[N+](=O)[O-])cc1 (stereo not given) | inconclusive: -3.61% | 
CCn1c(C)[n+](CCOCC[n+]2c(C)n(CC)c3cc(Cl)c(Cl)cc32)c2cc(Cl)c(Cl)cc21 |  | inconclusive: 10.3 µM [falling, single point]
CN(CC(=O)Nc1ccccc1Br)C(=O)Cn1[nH]c(=O)c2ccccc2c1=O | inconclusive: -0.303% | 
CSc1cccc(CNC(=O)C2CCC(=O)N(CC3CCCCC3)C2)c1 (stereo not given) | inconclusive: 3.78% | 
COc1ccc(-c2cnc3ccccc3n2)cc1NC(=O)CNC(=O)c1ccccc1 | inactive: 4.18% | 
CC(C)[C@H](NC(=O)C1CC(=O)N(c2ccc(F)cc2)C1)C(=O)N1CCCCC1 (stereo not given in full) | inactive: 10.6% | 

Compound | activity change, negative = inhibition | Potency
COc1ccc(NC(=O)N2CCCC2C(=O)Nc2ccc(C)c(Cl)c2)cc1 (stereo not given) | inconclusive: -0.684% | 
COc1cccc(-c2nc(CS(=O)(=O)CC(=O)N3CCCCC3)c(C)o2)c1 | inconclusive: 0.694% | 
c1ccc(-c2ccc(C3=Nn4c(nnc4-c4cc(-c5ccccc5)n[nH]4)SC3)cc2)cc1 |  | inconclusive: 8.91 µM [falling, partial curve]
COC(=O)c1sccc1NC(=O)Nc1cccc(F)c1 | inconclusive: -11.7% | 
CC(C)c1ccc(S(=O)(=O)N2CCN(C(=O)CN3C(=O)NC(C)(c4ccccc4)C3=O)CC2)cc1 (stereo not given) | inconclusive: -5.82% | 
CN1C(=O)/C(=C2\SC(=S)N(NC(=O)c3cccnc3)C2=O)c2ccccc21 | inconclusive: -1.5% | 
CCOc1ccc(C(=O)Cn2cnc3ccccc3c2=O)cc1 | inconclusive: -12.6% | 
O=C(Nc1cc(Cl)cc(Cl)c1)c1coc(=O)c(Br)c1 | inconclusive: -27.7% | 
CCCCCCNC(=O)c1c(O)c2cccc3c2n(c1=O)CCC3 | inconclusive: 13.5% | 
COc1ccc(Br)cc1C(=O)Nc1cccc(NC(=O)c2ccco2)c1 | inconclusive: -3.15% | 
O=C(O)c1sccc1Oc1ccc(NS(=O)(=O)c2ccc(Cl)cc2)cc1 | inconclusive: 1.17% | 
CNC(=O)NC(=O)C(C)OC(=O)c1oc2ccccc2c1CSc1ccc(Cl)cc1 (stereo not given) | inconclusive: 13.7% | 
Oc1ccc(/C=N/n2c3ccccc3c3ccccc32)cc1 |  | inconclusive: 4.11 µM [falling, single point]
COc1ccc2c(=O)c(Oc3ccc(C(=O)O)cc3)c(C(F)(F)F)oc2c1 |  | inconclusive: 14.1 µM [falling, partial curve]
O=C(CCS(=O)(=O)c1ccc(Br)cc1)NCc1ccco1 | inactive: -7.63% | 
COc1ccc(OC)c(NC(=O)CC2C(=O)NCCN2C(=O)C(F)(F)F)c1 (stereo not given) | inactive: -3.56% | 
COc1ccc(C(=O)NC(=S)N2CCC(C)CC2)cc1Br | inconclusive: 2.46% | 
COc1ccc(S(=O)(=O)N2CN(Cc3ccco3)c3nc4ccccc4nc32)cc1 | inconclusive: 7.28% | 
Cc1c(C)n(CCCN(C)C)c2ncnc(Nc3ccc(F)cc3)c12 | inconclusive: -11.6% | 
O=C(NC1CC1)c1ccc2c(c1)NC(=O)c1ccccc1S2 | inconclusive: 22.2% | 
CC12CCC3c4ccc(O)cc4CCC3C1CC(O)C2O (stereo not given) | inconclusive: -7.93% | 
O=C(CCN1C(=O)/C(=C/c2ccccc2Cl)SC1=S)NC1C=CS(=O)(=O)C1 (stereo not given) |  | inconclusive: 11.2 µM [falling, partial curve]
CN(c1ccccc1C(=O)N1CCN(c2ccccc2F)CC1)S(=O)(=O)c1ccccc1 | inconclusive: 0.108% | 
Cc1cc(C)c2nc(N(CCCN(C)C)C(=O)c3ccc4c(c3)OCCO4)sc2c1 | inconclusive: -11.5% | 
Cc1cc(C)n2nc(SCC(=O)N/N=C/c3ccccn3)nc2n1 | inactive: -1.26% | 
CCN(C(=O)COC(=O)c1ccc(O)cc1)c1cccc2ccccc12 | inactive: -5.1% | 
CCN(CC)S(=O)(=O)c1cccc(NC(=O)COC(=O)c2n[nH]c(=O)c3ccccc23)c1 | inactive: -9.63% | 

Ordered by number of heavy atoms (smallest number first): 5 of the compounds above.
Compound | activity change, negative = inhibition | Potency
O=C(NC1CC1)c1ccc2c(c1)NC(=O)c1ccccc1S2 | inconclusive: 22.2% | 
Cc1c2c(n3c(nc4ccccc43)c1C#N)N(c1ccccc1)CC2 | inconclusive: -7.85% | 
COc1ccc(OC)c(NC(=O)CC2C(=O)NCCN2C(=O)C(F)(F)F)c1 (stereo not given) | inactive: -3.56% | 
CC(C)[C@H](NC(=O)C1CC(=O)N(c2ccc(F)cc2)C1)C(=O)N1CCCCC1 (stereo not given in full) | inactive: 10.6% | 
CC(C)c1ccc(S(=O)(=O)N2CCN(C(=O)CN3C(=O)NC(C)(c4ccccc4)C3=O)CC2)cc1 (stereo not given) | inconclusive: -5.82% | 

Further structures.

Compound | activity change, negative = inhibition | Potency
COC(=O)c1ccccc1NC(=O)c1ccco1 | inactive: -12.6% | 
CCOC(=O)[C@@H]1[C@H]2COc3ccccc3[C@H]2N2C(=O)N(c3ccc(Br)cc3)C(=O)[C@]12C | inactive: 2.04% | 
CCN1CCN(c2ccc(S(=O)(=O)N3CCCCC3)cc2NC(=O)c2ccc(OC(F)F)cc2)CC1 | inactive: -0.565% | 
O=C1CCCc2ccccc2N1Cc1ccccc1 | inconclusive: 0.987% | 
COc1ccc(NS(=O)(=O)c2ccc(/C=C/C(=O)O)cc2)cc1S(=O)(=O)N1CCOCC1 | inactive: 2.4% | 
COc1ccc(C(=O)Nc2cc(OC)c(NC(=O)c3ccco3)cc2OC)cc1 |  | inconclusive: 6.51 µM [rising, partial curve]
COc1ccc(/C=N/NC(=O)c2ccn[nH]2)cc1COc1ccc(Cl)cc1Cl |  | inconclusive: 11.2 µM [falling, partial curve]
CCOC(=O)c1[nH]c(C(=O)O)c(OC(=O)CC)c1C | inconclusive: 5.18% | 
C1=Nc2ccccc2CN1c1ccccc1 | inactive: 10.5% | 
COC(=O)CSCC(=O)Nc1nnc(-c2ccccc2C)s1 |  | inconclusive: 17.8 µM [falling, partial curve]
Cc1cc(C)c([C@@H]2C[C@H]3CN(C4CCCC4)C(=O)[C@]34CCCN24)c(-n2cccn2)c1 | inconclusive: 10.6% | 
COc1ccc(C(=O)COC(=O)c2ccc(Cl)nc2)c(OC)c1 | inconclusive: 4.46% | 
CCN(CC)c1ccc(C(=O)N/N=C(\C)c2ccc(O)cc2)cc1 | inactive: -6.05% | 
O=C(CCCCCN1C(=O)c2ccccc2C1=O)Oc1ccc2c3c(c(=O)oc2c1)CCC3 |  | inconclusive: 2.59 µM [rising, partial curve, poor fit]
CCOc1cc(CNc2ccccc2)cc(Br)c1OCc1ccc(F)cc1 |  | inconclusive: 29.1 µM [rising, single point]
O=C(CSc1nncn1-c1ccccc1)Nc1ccccc1F | inconclusive: -6.72% | 
CC(=O)Nc1ccc(/C=N/NC(=S)NC(C)C)cc1 |  | inconclusive: 12.6 µM [falling, partial curve, poor fit]
O=C(Nc1ccc(-c2nc3ccccc3o2)c(O)c1)c1cc(-n2cnnc2)ccc1Cl | inconclusive: 6.31% | 
COc1cc(OC)c(NS(=O)(=O)c2cc(Br)cnc2N)cc1Cl | inactive: 4.89% | 
CC(C)CN(CCCNC(=O)c1cc(=O)[nH]c2ccc(S(=O)(=O)N3CCCC3)cc12)CC(C)C | inconclusive: -3.93% | 
CCCn1c(N)c(C(=O)CSc2nc(C)cs2)c(=O)n(C)c1=O |  | inconclusive: 2.82 µM [rising, partial curve, poor fit]
CCn1c(=S)sc2c(=O)n(CC(=O)Nc3cccc(Br)c3)c(C)nc21 | inconclusive: 3.92% | 
CC(=O)c1c(C)[nH]c(-c2ccccc2)c1C | inconclusive: -14.9% | 
c1ccc(-c2nnc(CN3CCCCC3)o2)cc1 |  | inconclusive: 35.5 µM [falling, partial curve, poor fit]
O=C(NCc1ccco1)C1CCC(CNS(=O)(=O)c2cccc3cccnc23)CC1 (stereo not given) | inconclusive: -6.11% | 
CCCCN(C(=O)c1cc2c(s1)CCC2)c1c(N)n(CC(C)C)c(=O)[nH]c1=O | inconclusive: 6.43% | 

Source: PubChem BioAssay AID493014 (National Center for Advancing Translational Sciences (NCATS), 2011)
